Source: PubChem BioAssay AID1508597 (Cure First, 2020)

- Screen: 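Knock-downs altering ovarian cancer cell survival with or without PARP inhibitor rucaparib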 (primary screen)
- Cell system: human ovarian carcinoma lines grown from tumours: OCI-P5x (papillary serous) and OCI-C5x (clear cell)
- Knock-down reagent: siRNA pool against human genes, 1.25 pmol siRNA per well
- Time to read-out: 72 h or 96 h, depending on the cell culture
- Challenge: rucaparib 20 µM (about IC30) or vehicle, present until read-out
- Rucaparib or vehicle: Rucaparib
- Cell line: OCI-P5x (serous)
- Measured: 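Luminescent ATP-based viability assay read 72 or 96 h after transfection, depending on culture, given as normalised percent viability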
- Direction: viability, normalised: higher = more viable cells remaining
- Call rule: 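a well counts as a hit if its normalised viability is under 80 percent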
- Calls: active = viability under 80%; inactive = viability 80% or more
This is a random part of the about 2,100 reagents, under one of the conditions tested. 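Calls flag viability under 80% in either arm, not effects specific to rucaparib; the reference for percent is not stated.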 Unmarked entries are inactive. Some reagents were tested in more than one well and are listed for each. The record does not give: the 100% reference.

The opening 8 records, to show the layout:
Gene | technical replicate | viability, normalised (%)
PSMC2 | 1 | 31.9 (active)
PSMC2 | 2 | 38.3 (active)
PSMC2 | 3 | 41.7 (active)
SALL1 | 1 | 51.1 (active)
SALL1 | 2 | 50.1 (active)
SALL1 | 3 | 51.1 (active)
RUVBL2 | 1 | 72.7 (active)
RUVBL2 | 1 | 49.5 (active)

The listing, from the start:
Gene | technical replicate | viability, normalised (%)
PSMC2 | 1 | 31.9 (active)
PSMC2 | 2 | 38.3 (active)
PSMC2 | 3 | 41.7 (active)
SALL1 | 1 | 51.1 (active)
SALL1 | 2 | 50.1 (active)
SALL1 | 3 | 51.1 (active)
RUVBL2 | 1 | 72.7 (active)
RUVBL2 | 1 | 49.5 (active)
RUVBL2 | 2 | 51.1 (active)
RUVBL2 | 2 | 90.7
RUVBL2 | 3 | 49.8 (active)
RUVBL2 | 3 | 96.4
KDM1B | 1 | 77.5 (active)
KDM1B | 2 | 62.3 (active)
KDM1B | 3 | 66 (active)
SUPT6H | 1 | 25.7 (active)
SUPT6H | 2 | 26.7 (active)
SUPT6H | 3 | 27.4 (active)
DHX40 | 1 | 43.3 (active)
DHX40 | 2 | 44.3 (active)
DHX40 | 3 | 41.4 (active)
MEN1 | 1 | 69.8 (active)
MEN1 | 2 | 56.6 (active)
MEN1 | 3 | 66.9 (active)
SIN3A | 1 | 39.3 (active)
SIN3A | 2 | 38.8 (active)
SIN3A | 3 | 55.9 (active)
CSF1R | 1 | 75.7 (active)
CSF1R | 2 | 112
CSF1R | 3 | 97.8
LY6E | 1 | 53.4 (active)
LY6E | 2 | 71.1 (active)
LY6E | 3 | 62.8 (active)
CDKL1 | 1 | 98.2
CDKL1 | 2 | 90.9
CDKL1 | 3 | 99.1
PDE12 | 1 | 80.7
PDE12 | 2 | 65.4 (active)
PDE12 | 3 | 62.1 (active)
PDGFRA | 1 | 111
PDGFRA | 2 | 129
PDGFRA | 3 | 120
ZFP42 | 1 | 53.2 (active)
ZFP42 | 2 | 59.8 (active)
ZFP42 | 3 | 29.5 (active)
SMAD1 | 1 | 52.5 (active)
SMAD1 | 2 | 54.7 (active)
SMAD1 | 3 | 56.9 (active)
DGKA | 1 | 96.6
DGKA | 2 | 89.2
DGKA | 3 | 88.1
MED12 | 1 | 56.4 (active)
MED12 | 2 | 54.7 (active)
MED12 | 3 | 34 (active)
CDC42BPA | 1 | 82
CDC42BPA | 2 | 93.4
CDC42BPA | 3 | 87.6
JUNB | 1 | 75.6 (active)
JUNB | 2 | 64.7 (active)
JUNB | 3 | 70.3 (active)
DDX24 | 1 | 67.2 (active)
DDX24 | 2 | 85.2
DDX24 | 3 | 88.5
ULK2 | 1 | 79.3 (active)
ULK2 | 2 | 67.6 (active)
ULK2 | 3 | 73.4 (active)
AKAP13 | 1 | 108
AKAP13 | 2 | 104
AKAP13 | 3 | 57.9 (active)
HFM1 | 1 | 83.7
HFM1 | 2 | 78 (active)
HFM1 | 3 | 80.3
CHTOP | 1 | 29.2 (active)
CHTOP | 2 | 47.5 (active)
CHTOP | 3 | 64.6 (active)
